In patent US20260193623:

Assays:
Experiment in all cases: activity assay
MG153-13 = test system: T1, MG153-13; details: primer extension gel; 3 mM MgCl2, 37 C; protein translated in vitro; protein details: N-terminal Strep; label: 5'-FAM primer; DNA:RNA hybrid
T1 sequence (limits assumed): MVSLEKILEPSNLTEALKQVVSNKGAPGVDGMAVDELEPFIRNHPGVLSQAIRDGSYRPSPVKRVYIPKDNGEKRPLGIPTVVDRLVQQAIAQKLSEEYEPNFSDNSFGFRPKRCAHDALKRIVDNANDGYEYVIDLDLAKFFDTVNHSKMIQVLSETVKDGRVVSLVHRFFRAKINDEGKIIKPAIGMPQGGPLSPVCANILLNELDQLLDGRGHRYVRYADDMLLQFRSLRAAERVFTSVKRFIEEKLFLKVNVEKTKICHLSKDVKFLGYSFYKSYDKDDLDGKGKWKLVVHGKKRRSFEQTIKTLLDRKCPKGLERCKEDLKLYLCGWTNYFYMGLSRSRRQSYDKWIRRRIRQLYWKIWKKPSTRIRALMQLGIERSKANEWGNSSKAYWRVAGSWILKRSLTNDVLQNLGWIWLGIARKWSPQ

MG157-1 = test system: T2, MG157-1; details: tested, not listed as active; protein translated in vitro; protein details: N-terminal Strep; label: 5'-FAM primer; DNA:RNA hybrid
T2 sequence (limits assumed): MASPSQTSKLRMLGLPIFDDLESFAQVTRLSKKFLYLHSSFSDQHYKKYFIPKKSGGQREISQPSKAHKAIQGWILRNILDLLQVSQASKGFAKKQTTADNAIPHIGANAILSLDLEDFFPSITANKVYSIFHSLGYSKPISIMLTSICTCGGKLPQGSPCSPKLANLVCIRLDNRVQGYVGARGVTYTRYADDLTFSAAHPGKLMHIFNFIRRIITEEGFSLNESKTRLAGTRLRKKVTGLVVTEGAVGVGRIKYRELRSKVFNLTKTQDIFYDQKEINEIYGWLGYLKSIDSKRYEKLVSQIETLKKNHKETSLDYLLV

MG157-5 = test system: T3, MG157-5; details: primer extension on general RNA; protein translated in vitro; protein details: N-terminal Strep; label: 5'-FAM primer; DNA:RNA hybrid
T3 sequence: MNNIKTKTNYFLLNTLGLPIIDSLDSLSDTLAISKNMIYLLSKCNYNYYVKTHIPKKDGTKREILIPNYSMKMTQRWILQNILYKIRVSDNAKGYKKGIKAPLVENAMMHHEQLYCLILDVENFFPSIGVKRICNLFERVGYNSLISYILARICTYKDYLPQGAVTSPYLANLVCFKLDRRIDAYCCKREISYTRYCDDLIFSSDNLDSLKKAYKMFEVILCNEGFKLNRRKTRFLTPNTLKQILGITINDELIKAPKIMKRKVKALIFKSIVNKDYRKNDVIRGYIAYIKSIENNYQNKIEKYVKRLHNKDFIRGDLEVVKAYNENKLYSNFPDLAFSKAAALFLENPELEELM

MG153-37 = test system: T4, MG153-37; details: primer extension gel; 3 mM MgCl2, 37 C; protein translated in vitro; protein details: N-terminal Strep; label: 5'-FAM primer; DNA:RNA hybrid
T4 sequence (limits assumed): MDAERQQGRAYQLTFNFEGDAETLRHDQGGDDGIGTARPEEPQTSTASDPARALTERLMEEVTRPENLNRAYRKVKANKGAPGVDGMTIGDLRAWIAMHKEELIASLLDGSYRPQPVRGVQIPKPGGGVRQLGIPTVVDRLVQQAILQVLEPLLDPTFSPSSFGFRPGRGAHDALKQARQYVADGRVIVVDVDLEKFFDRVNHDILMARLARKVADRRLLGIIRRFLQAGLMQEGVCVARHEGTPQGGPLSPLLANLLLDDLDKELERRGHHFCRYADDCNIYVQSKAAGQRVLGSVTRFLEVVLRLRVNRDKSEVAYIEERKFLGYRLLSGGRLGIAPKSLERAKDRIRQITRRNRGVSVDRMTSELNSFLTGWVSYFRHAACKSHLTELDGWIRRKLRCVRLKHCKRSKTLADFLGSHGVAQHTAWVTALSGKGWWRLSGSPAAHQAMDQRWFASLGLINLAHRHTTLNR

MG153-6 = test system: T5, MG153-6; details: primer extension gel; higher error rate than MMLV; protein translated in vitro; protein details: N-terminal Strep; label: 5'-FAM primer; DNA:RNA hybrid
T5 sequence (limits assumed): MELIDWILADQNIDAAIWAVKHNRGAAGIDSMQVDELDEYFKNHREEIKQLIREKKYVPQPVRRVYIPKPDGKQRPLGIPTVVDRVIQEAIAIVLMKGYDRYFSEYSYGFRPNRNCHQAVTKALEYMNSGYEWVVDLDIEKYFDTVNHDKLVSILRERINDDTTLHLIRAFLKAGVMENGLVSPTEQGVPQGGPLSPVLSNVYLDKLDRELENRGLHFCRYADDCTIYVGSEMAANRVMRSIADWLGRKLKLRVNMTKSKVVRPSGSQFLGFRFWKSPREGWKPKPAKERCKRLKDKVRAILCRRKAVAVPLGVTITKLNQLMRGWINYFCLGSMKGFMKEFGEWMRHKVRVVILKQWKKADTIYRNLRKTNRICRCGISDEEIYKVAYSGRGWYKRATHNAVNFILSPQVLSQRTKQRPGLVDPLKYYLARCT

MG153-53 = test system: T6, MG153-53; details: primer extension gel; 3 mM MgCl2, 37 C; protein translated in vitro; protein details: N-terminal Strep; label: 5'-FAM primer; DNA:RNA hybrid
T6 sequence (limits assumed): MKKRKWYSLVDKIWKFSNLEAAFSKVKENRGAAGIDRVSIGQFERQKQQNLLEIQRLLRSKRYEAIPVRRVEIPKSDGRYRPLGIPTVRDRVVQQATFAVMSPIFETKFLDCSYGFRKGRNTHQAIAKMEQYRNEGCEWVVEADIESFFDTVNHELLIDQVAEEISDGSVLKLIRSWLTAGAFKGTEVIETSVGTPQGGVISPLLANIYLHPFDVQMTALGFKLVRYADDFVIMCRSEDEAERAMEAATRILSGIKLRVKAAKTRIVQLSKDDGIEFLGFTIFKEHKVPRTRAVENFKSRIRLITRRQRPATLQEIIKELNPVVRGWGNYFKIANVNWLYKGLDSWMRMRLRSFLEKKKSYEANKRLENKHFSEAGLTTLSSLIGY

MG160-4 = test system: T7, MG160-4; details: primer extension gel and qPCR; protein translated in vitro; protein details: N-terminal Strep; label: 5'-FAM primer; DNA:RNA hybrid
T7 sequence: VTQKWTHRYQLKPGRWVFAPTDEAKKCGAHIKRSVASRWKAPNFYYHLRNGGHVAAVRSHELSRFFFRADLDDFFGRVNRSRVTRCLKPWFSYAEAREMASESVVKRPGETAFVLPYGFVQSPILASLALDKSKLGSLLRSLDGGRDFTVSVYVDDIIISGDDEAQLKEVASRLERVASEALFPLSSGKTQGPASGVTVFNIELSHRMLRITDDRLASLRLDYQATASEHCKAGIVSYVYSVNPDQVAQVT

## GGCAAACCGCCTCTCCCCGCGCGTTGGCCGATTCATTAATGCAGCTGGCACGACAGGTTTCCCGACTGGAAAGGAGACCCGGGCAGTGAGCGCAACGGGTCTCCAATTTAAGCCAGCCCCGACACCCGCCAACACCCGCTGACGCGCCCTGACGGGCTTGTCTGCTCCCGGCATCCGCTTACAGACAAGCTGTGACCGTCTC / GAGACGGTCACAGCTTGTCTG [202-nt RNA template annealed to DNA primer]
MG153-13
  activity on this sequence: active
MG157-1
  activity on this sequence: not active
MG157-5
  activity on this sequence: active
MG153-37
  activity on this sequence: active
MG153-6
  activity on this sequence: active
MG153-53
  activity on this sequence: active
MG160-4
  activity on this sequence: active

The exact form of at least one protein or probe is not confirmed. For some of these results: A negative result means that nothing was seen under these conditions. Where a protein sequence is shown, tags need not be part of it.
